# Data as given in the supplement of paper PMC10849652.
# By UniProt entry, the sequences of proteins in these tests, tags left out. Where a name states a change or a piece, a line headed by the entry shows the natural chain unless it says otherwise.
# UniProt A0PJW6: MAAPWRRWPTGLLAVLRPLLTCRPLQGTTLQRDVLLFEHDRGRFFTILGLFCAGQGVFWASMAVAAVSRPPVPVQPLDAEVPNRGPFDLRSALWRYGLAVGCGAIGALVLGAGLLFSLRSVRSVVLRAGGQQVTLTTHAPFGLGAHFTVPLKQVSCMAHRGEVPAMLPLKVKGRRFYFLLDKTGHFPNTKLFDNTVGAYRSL
# UniProt Q6PI78: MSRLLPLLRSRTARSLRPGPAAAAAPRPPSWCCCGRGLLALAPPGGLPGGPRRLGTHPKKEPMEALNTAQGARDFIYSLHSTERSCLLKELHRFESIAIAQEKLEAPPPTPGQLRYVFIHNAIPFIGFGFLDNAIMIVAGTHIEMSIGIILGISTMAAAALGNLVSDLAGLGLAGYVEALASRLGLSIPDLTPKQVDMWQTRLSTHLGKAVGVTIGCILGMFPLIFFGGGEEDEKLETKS
# UniProt Q9NV96: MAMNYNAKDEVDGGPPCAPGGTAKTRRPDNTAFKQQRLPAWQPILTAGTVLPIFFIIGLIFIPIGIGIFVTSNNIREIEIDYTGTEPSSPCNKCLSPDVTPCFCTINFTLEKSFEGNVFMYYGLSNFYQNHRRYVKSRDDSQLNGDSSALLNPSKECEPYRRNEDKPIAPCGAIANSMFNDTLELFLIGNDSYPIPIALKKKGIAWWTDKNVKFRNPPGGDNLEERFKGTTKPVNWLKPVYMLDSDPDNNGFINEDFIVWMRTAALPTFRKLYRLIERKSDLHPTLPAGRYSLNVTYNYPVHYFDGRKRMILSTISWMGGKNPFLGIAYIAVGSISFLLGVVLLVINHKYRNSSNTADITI
# UniProt O00220, whole entry, looked up: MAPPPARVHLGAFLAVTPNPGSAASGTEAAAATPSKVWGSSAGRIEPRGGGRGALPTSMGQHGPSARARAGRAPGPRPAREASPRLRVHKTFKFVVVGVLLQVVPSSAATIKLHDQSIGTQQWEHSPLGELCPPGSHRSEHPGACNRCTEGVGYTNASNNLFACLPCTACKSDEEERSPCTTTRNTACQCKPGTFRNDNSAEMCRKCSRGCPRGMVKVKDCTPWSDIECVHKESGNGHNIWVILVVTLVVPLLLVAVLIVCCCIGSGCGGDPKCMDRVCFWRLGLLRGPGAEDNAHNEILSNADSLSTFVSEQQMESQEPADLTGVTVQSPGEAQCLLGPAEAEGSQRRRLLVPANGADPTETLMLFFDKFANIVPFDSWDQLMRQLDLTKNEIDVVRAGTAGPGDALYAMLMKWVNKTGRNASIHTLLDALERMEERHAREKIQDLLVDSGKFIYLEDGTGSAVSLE
# UniProt Q4ZIN3: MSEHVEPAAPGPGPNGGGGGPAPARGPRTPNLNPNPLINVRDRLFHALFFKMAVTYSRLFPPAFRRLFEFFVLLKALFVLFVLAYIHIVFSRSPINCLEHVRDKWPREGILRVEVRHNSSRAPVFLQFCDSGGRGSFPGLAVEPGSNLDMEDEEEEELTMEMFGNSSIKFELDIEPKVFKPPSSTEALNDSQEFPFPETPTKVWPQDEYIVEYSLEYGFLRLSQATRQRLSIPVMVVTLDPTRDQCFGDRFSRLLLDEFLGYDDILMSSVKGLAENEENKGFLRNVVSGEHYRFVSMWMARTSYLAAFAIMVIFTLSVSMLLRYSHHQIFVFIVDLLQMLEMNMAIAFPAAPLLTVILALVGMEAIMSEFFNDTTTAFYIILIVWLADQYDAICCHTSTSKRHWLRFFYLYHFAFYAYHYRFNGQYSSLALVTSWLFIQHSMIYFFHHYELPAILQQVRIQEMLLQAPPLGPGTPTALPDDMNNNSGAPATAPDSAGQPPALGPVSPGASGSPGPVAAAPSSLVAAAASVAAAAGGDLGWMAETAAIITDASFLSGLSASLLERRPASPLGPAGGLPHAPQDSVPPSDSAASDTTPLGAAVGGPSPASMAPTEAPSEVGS
# UniProt P82094: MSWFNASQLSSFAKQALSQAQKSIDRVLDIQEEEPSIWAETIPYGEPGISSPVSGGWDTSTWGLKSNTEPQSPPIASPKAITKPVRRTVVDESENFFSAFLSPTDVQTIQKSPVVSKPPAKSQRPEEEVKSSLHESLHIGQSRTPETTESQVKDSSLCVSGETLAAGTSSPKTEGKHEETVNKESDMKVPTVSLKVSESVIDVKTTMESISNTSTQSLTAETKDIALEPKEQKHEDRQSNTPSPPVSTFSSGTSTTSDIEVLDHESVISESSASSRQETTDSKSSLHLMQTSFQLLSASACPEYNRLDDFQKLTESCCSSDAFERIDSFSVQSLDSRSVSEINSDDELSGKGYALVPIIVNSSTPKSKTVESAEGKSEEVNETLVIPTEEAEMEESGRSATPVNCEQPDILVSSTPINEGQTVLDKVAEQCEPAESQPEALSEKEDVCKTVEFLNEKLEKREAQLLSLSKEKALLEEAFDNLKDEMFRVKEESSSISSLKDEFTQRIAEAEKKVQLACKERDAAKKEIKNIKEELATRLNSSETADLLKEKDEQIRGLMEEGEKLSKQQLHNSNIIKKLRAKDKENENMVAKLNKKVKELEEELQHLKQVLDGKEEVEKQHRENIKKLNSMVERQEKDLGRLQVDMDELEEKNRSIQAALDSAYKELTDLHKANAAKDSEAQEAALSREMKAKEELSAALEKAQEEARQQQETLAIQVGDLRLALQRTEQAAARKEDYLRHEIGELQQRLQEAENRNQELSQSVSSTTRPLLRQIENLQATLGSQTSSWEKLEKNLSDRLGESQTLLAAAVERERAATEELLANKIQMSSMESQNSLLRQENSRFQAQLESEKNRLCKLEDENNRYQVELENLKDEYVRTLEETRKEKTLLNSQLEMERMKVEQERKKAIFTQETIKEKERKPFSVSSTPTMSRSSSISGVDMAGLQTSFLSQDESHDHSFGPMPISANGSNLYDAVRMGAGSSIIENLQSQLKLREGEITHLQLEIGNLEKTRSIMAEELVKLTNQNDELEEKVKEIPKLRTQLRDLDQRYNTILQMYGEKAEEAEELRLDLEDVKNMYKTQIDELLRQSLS
# UniProt Q7Z7N9: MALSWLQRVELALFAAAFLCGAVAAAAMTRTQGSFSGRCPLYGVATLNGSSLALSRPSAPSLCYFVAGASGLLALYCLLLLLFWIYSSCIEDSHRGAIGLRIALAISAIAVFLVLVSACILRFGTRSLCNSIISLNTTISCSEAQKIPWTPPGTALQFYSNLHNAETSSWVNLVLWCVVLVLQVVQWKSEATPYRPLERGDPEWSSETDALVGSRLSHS
# UniProt A0PK00: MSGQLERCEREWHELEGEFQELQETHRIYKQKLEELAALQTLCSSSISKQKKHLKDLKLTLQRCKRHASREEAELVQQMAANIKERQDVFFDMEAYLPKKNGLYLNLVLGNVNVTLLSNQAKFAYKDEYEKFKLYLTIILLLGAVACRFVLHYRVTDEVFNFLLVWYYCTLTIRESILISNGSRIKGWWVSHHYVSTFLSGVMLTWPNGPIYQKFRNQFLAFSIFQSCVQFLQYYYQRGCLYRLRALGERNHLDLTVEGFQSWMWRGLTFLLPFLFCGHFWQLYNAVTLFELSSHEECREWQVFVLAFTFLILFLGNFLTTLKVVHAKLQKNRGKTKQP
# Some of the results follow. Residues, ends and D or L forms follow the SMILES beside them. *: point of attachment. Cbz = O=C(OCc1ccccc1)*
# Assays:
# Assay in all cases: log2 fold change, soluble protein after heating vs DMSO (PISA); higher = thermal stabilisation; K562 cells, 10 uM, 30 min; active = over 0.2 and 3.5 SD of the protein, either way, in both replicates (recomputed)
# IRAK-1-4 Inhibitor I = compound: C1COCCN1CCN2C3=CC=CC=C3N=C2NC(=O)C4=CC(=CC=C4)[N+](=O)[O-] [IRAK-1-4 Inhibitor I]
# In short: (§1)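 For each measurement, 10 μM compound was applied for 30 min to K562 cells at 2×10^6 cells/mL. Aliquots were heated for 3 min across 48°C-58°C, pooled, and extracted in PBS with 0.5% NP-40 at 4°C; the supernatant after 21,000xg for 90 min was soluble protein. This was quantified by TMTpro 16plex LC-MS/MS with channel sums equalised, and thermal stability was reported relative to control samples from duplicates, on a log2 fold-change scale.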
# ibrutinib = compound: C=CC(=O)N1CCC[C@@H](n2nc(-c3ccc(Oc4ccccc4)cc3)c3c(N)ncnc32)C1 [ibrutinib]
# In short: as §1
# [1] = compound: CC(=O)c1cnc2ccc(-c3cc(Cl)c(O)c(Cl)c3)nc2c1N[C@H]1CC[C@H](CN(C)C)CC1
# In short: as §1
# ralimetinib = compound: CC(C)(C)Cn1c(N)nc2ccc(-c3[nH]c(C(C)(C)C)nc3-c3ccc(F)cc3)nc21 [ralimetinib]
# In short: as §1
# [2] = compound: CC(C)(O)CC(=O)NCCn1ccc2ncnc(Nc3ccc(Oc4cccc(C(F)(F)F)c4)c(Cl)c3)c21
# In short: as §1
# [3] = compound: CC(C)C1=C2N=C(C=C(N2N=C1)NCC3=CC=CC=C3)NCCCCCCN
# In short: as §1
# [4] = compound: CC(C)C[C@@H](C=O)NC(=O)[C@H](CC(C)C)NC(=O)[C@H](CC(C)C)NC(=O)OCc1ccccc1
# In short: as §1
# pinometostat = compound: CC(C)N(C[C@H]1O[C@@H](n2cnc3c(N)ncnc32)[C@H](O)[C@@H]1O)[C@H]1C[C@@H](CCc2nc3cc(C(C)(C)C)ccc3[nH]2)C1 [pinometostat]
# In short: as §1
# [5] = compound: CC1=C(C2=C(C=C1)C(=O)C3=CC=CC=C3N2CCCN)C
# In short: as §1
# [6] = compound: CC1=C(C=C(C=C1)NC(=O)C2=CC(=CC=C2)C(C)(C)C#N)NC3=CC4=C(C=C3)N=CN(C4=O)C
# In short: as §1
# [7] = compound: CC1=C(C=C(C=C1)NC(=O)C2=CC(=CC=C2)N(C)C)NC(=O)C3=CC=C(C=C3)O
# In short: as §1
# [8] = compound: CC1=CC=C(C=C1)SC2=C3C=C(SC3=CN=C2)C(=O)N
# In short: as §1
# [9] = compound: CC1=NC(=CC=C1)C2=C(N=C(N2)C(C)(C)C)C3=CC4=NC=CN=C4C=C3
# In short: as §1
# Nexturastat A = compound: CCCCN(Cc1ccc(C(=O)NO)cc1)C(=O)Nc1ccccc1 [Nexturastat A]
# In short: as §1
# vemurafenib = compound: CCCS(=O)(=O)Nc1ccc(F)c(C(=O)c2c[nH]c3ncc(-c4ccc(Cl)cc4)cc23)c1F [vemurafenib]
# In short: as §1
# [10] = compound: CCCS(=O)(=O)Nc1ccc(F)c(C(=O)c2c[nH]c3ncc(Cl)cc23)c1F
# In short: as §1
# [11] = compound: CCCc1cc(C)[nH]c(=O)c1CNC(=O)c1cc(-c2ccnc(N3CCN(C)CC3)c2)cc2c1cnn2C(C)C
# In short: as §1
# givinostat = compound: CCN(CC)Cc1ccc2cc(COC(=O)Nc3ccc(C(=O)NO)cc3)ccc2c1 [givinostat]
# In short: as §1
# barasertib = compound: CCN(CCCOc1ccc2c(Nc3cc(CC(=O)Nc4cccc(F)c4)[nH]n3)ncnc2c1)CCOP(=O)(O)O [barasertib]
# In short: as §1
# [12] = compound: CC1=C(C(CC(=O)N1)C2=CC=C(C=C2)C(F)(F)F)C(=O)NC3=C(C=C4C(=C3)C=NN4)F
# In short: as §1
Target,log2 fold change (IRAK-1-4 Inhibitor I),log2 fold change (ibrutinib),log2 fold change [1],log2 fold change (ralimetinib),log2 fold change [2],log2 fold change [3],log2 fold change [4],log2 fold change (pinometostat),log2 fold change [5],log2 fold change [6],log2 fold change [7],log2 fold change [8],log2 fold change [9],log2 fold change (Nexturastat A),log2 fold change (vemurafenib),log2 fold change [10],log2 fold change [11],log2 fold change (givinostat),log2 fold change (barasertib),log2 fold change [12]
TMEM223 (UniProt A0PJW6),inactive: 0.039,inactive: 0.006,inactive: -0.101,inactive: -0.009,inactive: 0.114,inactive: -0.063,inactive: 0,inactive: -0.019,inactive: 0.042,inactive: 0.034,inactive: -0.001,inactive: -0.026,inactive: 0.058,inactive: -0.13,inactive: 0.084,inactive: 0.055,inactive: -0.128,inactive: 0.002,inactive: 0.041,
TMEM65 (UniProt Q6PI78),inactive: -0.056,inactive: -0.024,inactive: -0.052,inactive: -0.054,inactive: -0.177,inactive: 0.002,inactive: -0.021,inactive: 0.185,inactive: 0.067,inactive: 0.001,inactive: 0.023,inactive: 0.054,inactive: -0.092,inactive: 0.228,inactive: -0.069,inactive: -0.092,inactive: -0.108,inactive: 0,inactive: 0.053,inactive: -0.025
TMEM30A (UniProt Q9NV96),inactive: 0.009,inactive: -0.026,inactive: -0.003,inactive: -0.045,inactive: -0.01,inactive: 0.056,inactive: -0.001,inactive: -0.022,inactive: -0.081,inactive: -0.013,inactive: 0.012,inactive: -0.012,inactive: -0.012,inactive: -0.018,inactive: 0,inactive: 0,inactive: 0.068,inactive: 0,inactive: -0.008,inactive: -0.012
TNFRSF10A (UniProt O00220),inactive: 0.002,inactive: 0.034,inactive: -0.064,inactive: -0.072,inactive: -0.073,inactive: 0.043,inactive: 0.078,inactive: -0.002,inactive: 0.021,inactive: 0.006,inactive: 0.035,inactive: 0.016,inactive: -0.015,inactive: 0.089,inactive: -0.073,inactive: -0.044,inactive: 0.004,inactive: -0.042,inactive: 0.016,
TMEM259 (UniProt Q4ZIN3),inactive: 0.017,inactive: 0.038,inactive: 0,inactive: 0.041,inactive: -0.014,inactive: -0.037,inactive: -0.011,inactive: 0.027,inactive: 0.03,inactive: -0.031,inactive: 0.01,inactive: 0.075,inactive: -0.013,inactive: -0.014,inactive: 0.016,inactive: -0.032,inactive: -0.021,inactive: 0.063,inactive: -0.006,inactive: 0.045
TMF1 (UniProt P82094),inactive: 0.025,inactive: 0.007,inactive: 0.009,inactive: -0.029,inactive: 0.035,inactive: 0.058,inactive: 0.022,inactive: -0.021,inactive: -0.037,inactive: -0.011,inactive: 0.031,inactive: 0.013,inactive: 0.004,inactive: -0.002,inactive: -0.024,inactive: -0.013,inactive: -0.077,inactive: -0.031,inactive: -0.003,inactive: 0
TMEM263 (UniProt Q8WUH6),inactive: 0.083,inactive: 0,inactive: 0.026,inactive: -0.092,inactive: -0.303,active: -1.03,inactive: 0.029,inactive: 0.001,inactive: 0.037,inactive: -0.009,inactive: -0.015,inactive: 0.117,inactive: 0.059,inactive: -0.02,inactive: -0.051,inactive: 0.128,inactive: -0.138,inactive: -0.015,inactive: 0.054,
TMEM179B (UniProt Q7Z7N9),inactive: 0.04,inactive: -0.05,inactive: -0.061,inactive: -0.008,inactive: -0.24,inactive: -0.011,inactive: -0.021,inactive: -0.024,inactive: 0.019,inactive: -0.233,inactive: -0.003,inactive: 0.011,inactive: 0.027,inactive: 0.378,,inactive: 0.053,inactive: -0.021,inactive: -0.118,inactive: 0.045,
TMEM120B (UniProt A0PK00),inactive: 0.025,,inactive: -0.239,inactive: 0.197,,inactive: 0.131,inactive: -0.106,inactive: -0.054,inactive: 0.013,,inactive: 0.008,,inactive: 0.074,,inactive: 0.104,,inactive: 0.001,inactive: 0.068,,inactive: -0.241
